In paper PMC6584639 one finds binding data, which are given here for two molecules.

No constants are given. Whether binding was seen depends on the method and setting. Tags and fused reporters may be left off the sequences shown.

The assay addresses T1, KIF1CΔS-GFP (6His-KIF1CΔ623–825-GFP) (human) (UniProt O43896).
T1 sequence: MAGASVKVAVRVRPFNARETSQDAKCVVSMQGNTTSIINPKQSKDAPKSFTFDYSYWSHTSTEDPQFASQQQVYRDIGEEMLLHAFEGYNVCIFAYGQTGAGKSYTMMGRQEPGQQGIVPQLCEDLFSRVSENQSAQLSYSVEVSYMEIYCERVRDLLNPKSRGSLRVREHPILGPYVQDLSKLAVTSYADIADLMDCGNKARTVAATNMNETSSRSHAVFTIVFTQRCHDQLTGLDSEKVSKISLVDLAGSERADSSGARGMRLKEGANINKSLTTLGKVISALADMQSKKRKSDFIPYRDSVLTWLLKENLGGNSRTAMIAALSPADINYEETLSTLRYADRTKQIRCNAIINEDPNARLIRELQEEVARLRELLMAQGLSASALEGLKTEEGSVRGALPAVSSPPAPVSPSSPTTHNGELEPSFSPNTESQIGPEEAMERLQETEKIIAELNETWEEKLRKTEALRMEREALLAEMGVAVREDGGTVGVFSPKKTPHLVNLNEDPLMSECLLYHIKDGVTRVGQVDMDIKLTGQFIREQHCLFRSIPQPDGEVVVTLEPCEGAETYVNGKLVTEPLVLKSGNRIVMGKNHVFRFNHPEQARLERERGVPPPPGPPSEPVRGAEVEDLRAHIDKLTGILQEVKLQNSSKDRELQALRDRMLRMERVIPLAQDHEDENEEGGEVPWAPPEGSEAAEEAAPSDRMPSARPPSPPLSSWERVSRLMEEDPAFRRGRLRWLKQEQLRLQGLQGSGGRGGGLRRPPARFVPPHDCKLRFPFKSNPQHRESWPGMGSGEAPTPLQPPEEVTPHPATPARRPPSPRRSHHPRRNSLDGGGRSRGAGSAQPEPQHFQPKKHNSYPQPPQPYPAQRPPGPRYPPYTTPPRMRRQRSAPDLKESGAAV
Description: single-molecule co-transport on microtubules (two-colour TIRF); KIF1C-GFP or KIF1CΔS-GFP incubated with Hook3-SNAPf647 or 647SNAPf-FERM, then imaged on microtubules, 25 °C; both purified.

B1: recombinant human Hook3 with a C-terminal SNAP-tag, labelled with Alexa647 (protein, UniProt Q86VS8 1-718)
chain: MFSVESLERAELCESLLTWIQTFNVDAPCQTVEDLTNGVVMAQVLQKIDPAYFDENWLNRIKTEVGDNWRLKISNLKKILKGILDYNHEILGQQINDFTLPDVNLIGEHSDAAELGRMLQLILGCAVNCEQKQEYIQAIMMMEESVQHVVMTAIQELMSKESPVSAGNDAYVDLDRQLKKTTEELNEALSAKEEIAQRCHELDMQVAALQEEKSSLLAENQVLMERLNQSDSIEDPNSPAGRRHLQLQTQLEQLQEETFRLEAAKDDYRIRCEELEKEISELRQQNDELTTLADEAQSLKDEIDVLRHSSDKVSKLEGQVESYKKKLEDLGDLRRQVKLLEEKNTMYMQNTVSLEEELRKANAARSQLETYKRQVVELQNRLSEESKKADKLDFEYKRLKEKVDSLQKEKDRLRTERDSLKETIEELRCVQAQEGQLTTQGLMPLGSQESSDSLAAEIVTPEIREKLIRLQHENKMLKLNQEGSDNEKIALLQSLLDDANLRKNELETENRLVNQRLLEVQSQVEELQKSLQDQGSKAEDSVLLKKKLEEHLEKLHEANNELQKKRAIIEDLEPRFNNSSLKIEELQEALRKKEEEMKQMEERYKKYLEKAKSVIRTLDPKQNQGAAPEIQALKNQLQERDRLFHSLEKEYEKTKSQREMEEKYIVSAWYNMGMTLHKKAAEDRLASTGSGQSFLARQRQATSSRRSYPGHVQPATAR
modifications: SNAP-Surface Alexa Fluor 647 on the SNAPf tag (labelling ratio 1.05)
On to B1, for which the binding result was “no binding”.

B2: SNAPf26-PTPN21(1–381)-6His labelled with Alexa647 (domain or fragment, UniProt Q16825 1-381)
chain: MPLPFGLKLKRTRRYTVSSKSCLVARIQLLNNEFVEFTLSVESTGQESLEAVAQRLELREVTYFSLWYYNKQNQRRWVDLEKPLKKQLDKYALEPTVYFGVVFYVPSVSQLQQEITRYQYYLQLKKDILEGSIPCTLEQAIQLAGLAVQADFGDFDQYESQDFLQKFALFPVGWLQDEKVLEEATQKVALLHQKYRGLTAPDAEMLYMQEVERMDGYGEESYPAKDSQGSDISIGACLEGIFVKHKNGRHPVVFRWHDIANMSHNKSFFALELANKEETIQFQTEDMETAKYIWRLCVARHKFYRLNQCNLQTQTVTVNPIRRRSSSRMSLPKPQPYVMPPPPQLHYNGHYTEPYASSQDNLFVPNQNGYYCHSQTSLDRA
modifications: SNAP-Surface Alexa Fluor 647 on the SNAPf tag (labelling ratio 0.4)
In the case of B2, the binding entry is on record as “no binding”.
